# No constants are given. Whether binding was seen depends on the method and setting. Binding seen in cells or lysates may run through a third protein. Here binding means that the protein was enriched with, or labelled near, the bait; the list need not be complete. For some of these results: A no says only that the protein was not detected with the bait. For some of these results: Where a sequence is shown, tags or fusion partners need not be part of it.
# Protein sequences, listed by entry. Tags and fused reporters are not part of them.
# UniProt P62491: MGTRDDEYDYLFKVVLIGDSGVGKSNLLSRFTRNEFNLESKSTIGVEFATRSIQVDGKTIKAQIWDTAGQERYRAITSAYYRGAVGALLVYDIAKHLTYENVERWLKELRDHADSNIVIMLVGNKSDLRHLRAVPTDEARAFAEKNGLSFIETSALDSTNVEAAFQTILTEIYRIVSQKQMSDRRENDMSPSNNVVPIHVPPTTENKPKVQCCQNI
# UniProt P20338: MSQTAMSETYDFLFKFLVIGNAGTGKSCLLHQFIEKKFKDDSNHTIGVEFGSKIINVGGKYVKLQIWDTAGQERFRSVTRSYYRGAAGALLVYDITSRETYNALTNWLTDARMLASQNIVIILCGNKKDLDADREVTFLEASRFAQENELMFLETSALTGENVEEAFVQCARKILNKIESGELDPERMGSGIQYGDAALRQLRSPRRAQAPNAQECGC
# T1: mycBirA*–Rab25 (UniProt P57735)
# T1 sequence: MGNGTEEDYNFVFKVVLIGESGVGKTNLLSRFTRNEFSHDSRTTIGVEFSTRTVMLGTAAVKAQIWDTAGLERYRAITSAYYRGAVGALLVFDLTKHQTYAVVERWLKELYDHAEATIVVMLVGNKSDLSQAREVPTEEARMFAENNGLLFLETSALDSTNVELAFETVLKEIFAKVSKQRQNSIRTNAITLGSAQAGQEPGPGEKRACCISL
# B1: ARHGAP1 (protein, UniProt Q07960 1-439)
# chain: MDPLSELQDDLTLDDTSEALNQLKLASIDEKNWPSDEMPDFPKSDDSKSSSPELVTHLKWDDPYYDIARHQIVEVAGDDKYGRKIIVFSACRMPPSHQLDHSKLLGYLKHTLDQYVESDYTLLYLHHGLTSDNKPSLSWLRDAYREFDRKYKKNIKALYIVHPTMFIKTLLILFKPLISFKFGQKIFYVNYLSELSEHVKLEQLGIPRQVLKYDDFLKSTQKSPATAPKPMPPRPPLPNQQFGVSLQHLQEKNPEQEPIPIVLRETVAYLQAHALTTEGIFRRSANTQVVREVQQKYNMGLPVDFDQYNELHLPAVILKTFLRELPEPLLTFDLYPHVVGFLNIDESQRVPATLQVLQTLPEENYQVLRFLTAFLVQISAHSDQNKMTNTNLAVVFGPNLLWAKDAAITLKAINPINTFTKFLLDHQGELFPSPDPSGL
# B2: YKT6 (protein, UniProt O15498 1-198)
# chain: MKLYSLSVLYKGEAKVVLLKAAYDVSSFSFFQRSSVQEFMTFTSQLIVERSSKGTRASVKEQDYLCHVYVRNDSLAGVVIADNEYPSRVAFTLLEKVLDEFSKQVDRIDWPVGSPATIHYPALDGHLSRYQNPREADPMTKVQAELDETKIILHNTMESLLERGEKLDDLVSKSEVLGTQSKAFYKTARKQNSCCAIM
# B3: Rab11FIP5 (protein, UniProt Q9BXF6 1-653)
# chain: MALVRGAEPAAGPSRWLPTHVQVTVLRARGLRGKSSGAGSTSDAYTVIQVGREKYSTSVVEKTHGCPEWREECSFELPPGALDGLLRAQEADAGPAPWAASSAAACELVLTTMHRSLIGVDKFLGQATVALDEVFGAGRAQHTQWYKLHSKPGKKEKERGEIEVTIQFTRNNLSASMFDLSMKDKPRSPFSKIRDKMKGKKKYDLESASAILPSSAIEDPDLGSLGKMGKAKGFFLRNKLRKSSLTQSNTSLGSDSTLSSASGSLAYQGPGAELLTRSPSRSSWLSTEGGRDSAQSPKLFTHKRTYSDEANQMRVAPPRALLDLQGHLDAASRSSLCVNGSHIYNEEPQGPVRHRSSISGSLPSSGSLQAVSSRFSEEGPRSTDDTWPRGSRSNSSSEAVLGQEELSAQAKVLAPGASHPGEEEGARLPEGKPVQVATPIVASSEAVAEKEGARKEERKPRMGLFHHHHQGLSRSELGRRSSLGEKGGPILGASPHHSSSGEEKAKSSWFGLREAKDPTQKPSPHPVKPLSAAPVEGSPDRKQSRSSLSIALSSGLEKLKTVTSGSIQPVTQAPQAGQMVDTKRLKDSAVLDQSAKYYHLTHDELISLLLQRERELSQRDEHVQELESYIDRLLVRIMETSPTLLQIPPGPPK
# B4: CHM-like Rab escort protein (protein, UniProt P26374 1-656)
# chain: MADNLPTEFDVVIIGTGLPESILAAACSRSGQRVLHIDSRSYYGGNWASFSFSGLLSWLKEYQQNNDIGEESTVVWQDLIHETEEAITLRKKDETIQHTEAFCYASQDMEDNVEEIGALQKNPSLGVSNTFTEVLDSALPEESQLSYFNSDEMPAKHTQKSDTEISLEVTDVEESVEKEKYCGDKTCMHTVSDKDGDKDESKSTVEDKADEPIRNRITYSQIVKEGRRFNIDLVSKLLYSQGLLIDLLIKSDVSRYVEFKNVTRILAFREGKVEQVPCSRADVFNSKELTMVEKRMLMKFLTFCLEYEQHPDEYQAFRQCSFSEYLKTKKLTPNLQHFVLHSIAMTSESSCTTIDGLNATKNFLQCLGRFGNTPFLFPLYGQGEIPQGFCRMCAVFGGIYCLRHKVQCFVVDKESGRCKAIIDHFGQRINAKYFIVEDSYLSEETCSNVQYKQISRAVLITDQSILKTDLDQQTSILIVPPAEPGACAVRVTELCSSTMTCMKDTYLVHLTCSSSKTAREDLESVVKKLFTPYTETEINEEELTKPRLLWALYFNMRDSSGISRSSYNGLPSNVYVCSGPDCGLGNEHAVKQAETLFQEIFPTEEFCPPPPNPEDIIFDGDDKQPEAPGTNNVVMAKLESSEESKNLESPEKHLQN
# B5: AKAP10 (protein, UniProt O43572 29-662)
# chain: KVKGKEQEKTSDVKSIKASISVHSPQKSTKNHALLEAAGPSHVAINAISANMDSFSSSRTATLKKQPSHMEAAHFGDLGRSCLDYQTQETKSSLSKTLEQVLHDTIVLPYFIQFMELRRMEHLVKFWLEAESFHSTTWSRIRAHSLNTVKQSSLAEPVSPSKKHETTASFLTDSLDKRLEDSGSAQLFMTHSEGIDLNNRTNSTQNHLLLSQECDSAHSLRLEMARAGTHQVSMETQESSSTLTVASRNSPASPLKELSGKLMKSIEQDAVNTFTKYISPDAAKPIPITEAMRNDIIARICGEDGQVDPNCFVLAQSIVFSAMEQEHFSEFLRSHHFCKYQIEVLTSGTVYLADILFCESALFYFSEYMEKEDAVNILQFWLAADNFQSQLAAKKGQYDGQEAQNDAMILYDKYFSLQATHPLGFDDVVRLEIESNICREGGPLPNCFTTPLRQAWTTMEKVFLPGFLSSNLYYKYLNDLIHSVRGDEFLGGNVSLTAPGSVGPPDESHPGSSDSSASQSSVKKASIKILKNFDEAIIVDAASLDPESLYQRTYAGKMTFGRVSDLGQFIRESEPEPDVRKSKGSMFSQAMKKWVQGNTDEAQEELAWKIAKMIVSDIMQQAQYDQPLEKSTKL
# B6: CRACR2A (protein, UniProt Q9BSW2 1-731)
# chain: MAAPDGRVVSRPQRLGQGSGQGPKGSGACLHPLDSLEQKETQEQTSGQLVMLRKAQEFFQTCDAEGKGFIARKDMQRLHKELPLSLEELEDVFDALDADGNGYLTPQEFTTGFSHFFFSQNNPSQEDAGEQVAQRHEEKVYLSRGDEDLGDMGEDEEAQFRMLMDRLGAQKVLEDESDVKQLWLQLKKEEPHLLSNFEDFLTRIISQLQEAHEEKNELECALKRKIAAYDEEIQHLYEEMEQQIKSEKEQFLLKDTERFQARSQELEQKLLCKEQELEQLTQKQKRLEGQCTALHHDKHETKAENTKLKLTNQELARELERTSWELQDAQQQLESLQQEACKLHQEKEMEVYRVTESLQREKAGLLKQLDFLRERNKHLRDERDICFQKNKAAKANTAASRASWKKRSGSVIGKYVDSRGILRSQSEEEEEVFGIPRRSSLGLSGYPLTEEEPGTGEPGPGGPYPRPLRRIISVEEDPLPQLLDGGFEQPLSKCSEEEEVSDQGVQGQIPEAPPLKLTPTSPRGQPVGKEALCKEESSPSAPDRLFKIVFVGNSAVGKTSFLRRFCEDRFSPGMAATVGIDYRVKTLNVDNSQVALQLWDTAGQERYRCITQQFFRKADGVIVMYDLTDKQSFLSVRRWLSSVEEAVGDRVPVLLLGNKLDNEKEREVPRGLGEQLATENNLIFYECSAYSGHNTKESLLHLARFLKEQEDTVREDTIQVGHPAKKKSCCG
# B7: SNX29 (protein, UniProt Q8TEQ0 1-813)
# chain: MSGSQNNDKRQFLLERLLDAVKQCQIRFGGRKEIASDSDSRVTCLCAQFEAVLQHGLKRSRGLALTAAAIKQAAGFASKTETEPVFWYYVKEVLNKHELQRFYSLRHIASDVGRGRAWLRCALNEHSLERYLHMLLADRCRLSTFYEDWSFVMDEERSSMLPTMAAGLNSILFAINIDNKDLNGQSKFAPTVSDLLKESTQNVTSLLKESTQGVSSLFREITASSAVSILIKPEQETDPLPVVSRNVSADAKCKKERKKKKKVTNIISFDDEEDEQNSGDVFKKTPGAGESSEDNSDRSSVNIMSAFESPFGPNSNGSQSSNSWKIDSLSLNGEFGYQKLDVKSIDDEDVDENEDDVYGNSSGRKHRGHSESPEKPLEGNTCLSQMHSWAPLKVLHNDSDILFPVSGVGSYSPADAPLGSLENGTGPEDHVLPDPGLRYSVEASSPGHGSPLSSLLPSASVPESMTISELRQATVAMMNRKDELEEENRSLRNLLDGEMEHSAALRQEVDTLKRKVAEQEERQGMKVQALARENEVLKVQLKKYVGAVQMLKREGQTAEVPNLWSVDGEVTVAEQKPGEIAEELASSYERKLIEVAEMHGELIEFNERLHRALVAKEALVSQMRQELIDLRGPVPGDLSQTSEDQSLSDFEISNRALINVWIPSVFLRGKAANAFHVYQVYIRIKDDEWNIYRRYTEFRSLHHKLQNKYPQVRAYNFPPKKAIGNKDAKFVEERRKQLQNYLRSVMNKVIQMVPEFAASPKKETLIQLMPFFVDITPPGEPVNSRPKAASRFPKLSRGQPRETRNVEPQSGDL
# Molecular target: mycBirA*–Rab11a (UniProt P62491)
# Test: proximity labelling; BioID: A2780 cells stably expressing mycBirA*-Rab baits (mycBirA* alone as control), 1 uM biotin for 16 h; lysis in 0.4% SDS, 500 mM NaCl buffer; streptavidin microspheres; LC-MS/MS with label-free quantification, four replicates; high-confidence list by SAINTexpress (BFDR<=0.05), longlist by >2-fold enrichment; biotin-modified peptides also scored
row,binding,Binder
1,binds,B1
2,binds,B2
3,binds,B3
4,binds,B4
5,binds,B5
6,binds,B6

# Molecular target: mycBirA*–Rab4a (UniProt P20338)
# Test: as above
row,binding,Binder
1,binds,B1
2,binds,B2
3,no binding,B3
4,binds,B4
5,binds,B5
6,no binding,B6
7,binds,B7

# Molecular target: T1, mycBirA*–Rab25
# Test: as above
row,binding,Binder
1,binds,B1
2,binds,B2
3,binds,B3
4,binds,B4
5,binds,B5
6,binds,B6

# Source: article PMC10323252
